# Assay results published in the supplement of paper PMC10849652.
# Amino acid sequences for entries named in this document (tags omitted). A change or cut given only in a name is not applied to a line headed by its entry.
# UniProt Q8IYI0: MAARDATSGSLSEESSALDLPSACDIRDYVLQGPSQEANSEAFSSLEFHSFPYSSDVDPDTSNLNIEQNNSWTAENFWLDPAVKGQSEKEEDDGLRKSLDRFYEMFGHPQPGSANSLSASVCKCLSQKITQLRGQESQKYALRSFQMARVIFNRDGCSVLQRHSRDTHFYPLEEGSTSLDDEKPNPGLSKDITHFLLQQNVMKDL
# UniProt Q2VWA4: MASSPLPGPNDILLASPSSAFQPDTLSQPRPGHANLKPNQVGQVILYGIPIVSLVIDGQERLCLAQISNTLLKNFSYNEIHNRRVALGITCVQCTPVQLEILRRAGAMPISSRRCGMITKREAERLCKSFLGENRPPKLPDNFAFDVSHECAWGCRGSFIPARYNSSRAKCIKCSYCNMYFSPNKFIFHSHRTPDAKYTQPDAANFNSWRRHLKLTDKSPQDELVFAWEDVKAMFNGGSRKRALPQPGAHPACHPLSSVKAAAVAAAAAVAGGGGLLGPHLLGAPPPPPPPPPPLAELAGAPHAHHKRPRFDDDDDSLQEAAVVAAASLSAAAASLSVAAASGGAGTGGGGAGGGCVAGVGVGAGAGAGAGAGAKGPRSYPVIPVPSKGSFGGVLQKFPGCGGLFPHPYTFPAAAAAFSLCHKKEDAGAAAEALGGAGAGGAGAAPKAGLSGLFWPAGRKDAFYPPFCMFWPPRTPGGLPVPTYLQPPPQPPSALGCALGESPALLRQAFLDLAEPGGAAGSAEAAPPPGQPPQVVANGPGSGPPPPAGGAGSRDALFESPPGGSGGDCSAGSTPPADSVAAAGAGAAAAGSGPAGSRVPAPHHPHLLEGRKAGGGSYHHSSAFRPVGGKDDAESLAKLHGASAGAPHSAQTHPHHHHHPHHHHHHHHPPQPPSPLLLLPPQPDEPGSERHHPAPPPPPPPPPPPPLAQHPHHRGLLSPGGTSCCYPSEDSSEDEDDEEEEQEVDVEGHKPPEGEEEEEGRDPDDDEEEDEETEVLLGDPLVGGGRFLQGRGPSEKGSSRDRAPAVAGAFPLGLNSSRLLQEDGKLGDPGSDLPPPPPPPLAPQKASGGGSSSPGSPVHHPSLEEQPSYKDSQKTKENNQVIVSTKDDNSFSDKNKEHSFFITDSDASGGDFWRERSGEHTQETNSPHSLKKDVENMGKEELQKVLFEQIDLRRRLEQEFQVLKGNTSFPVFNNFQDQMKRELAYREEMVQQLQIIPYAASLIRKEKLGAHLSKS
# UniProt P51688: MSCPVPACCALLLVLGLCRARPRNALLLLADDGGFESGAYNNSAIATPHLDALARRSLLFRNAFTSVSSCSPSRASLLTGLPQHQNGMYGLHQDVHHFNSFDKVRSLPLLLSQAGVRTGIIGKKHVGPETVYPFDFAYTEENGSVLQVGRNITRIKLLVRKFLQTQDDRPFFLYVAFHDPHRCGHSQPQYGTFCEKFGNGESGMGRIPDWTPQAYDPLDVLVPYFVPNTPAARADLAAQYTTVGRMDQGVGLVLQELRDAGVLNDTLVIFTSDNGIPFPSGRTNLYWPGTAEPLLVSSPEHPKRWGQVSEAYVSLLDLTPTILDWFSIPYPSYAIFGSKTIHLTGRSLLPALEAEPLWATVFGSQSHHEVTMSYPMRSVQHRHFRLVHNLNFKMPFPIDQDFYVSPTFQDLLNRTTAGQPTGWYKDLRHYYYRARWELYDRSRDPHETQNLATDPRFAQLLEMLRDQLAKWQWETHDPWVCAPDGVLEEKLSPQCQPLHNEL
# UniProt Q15464: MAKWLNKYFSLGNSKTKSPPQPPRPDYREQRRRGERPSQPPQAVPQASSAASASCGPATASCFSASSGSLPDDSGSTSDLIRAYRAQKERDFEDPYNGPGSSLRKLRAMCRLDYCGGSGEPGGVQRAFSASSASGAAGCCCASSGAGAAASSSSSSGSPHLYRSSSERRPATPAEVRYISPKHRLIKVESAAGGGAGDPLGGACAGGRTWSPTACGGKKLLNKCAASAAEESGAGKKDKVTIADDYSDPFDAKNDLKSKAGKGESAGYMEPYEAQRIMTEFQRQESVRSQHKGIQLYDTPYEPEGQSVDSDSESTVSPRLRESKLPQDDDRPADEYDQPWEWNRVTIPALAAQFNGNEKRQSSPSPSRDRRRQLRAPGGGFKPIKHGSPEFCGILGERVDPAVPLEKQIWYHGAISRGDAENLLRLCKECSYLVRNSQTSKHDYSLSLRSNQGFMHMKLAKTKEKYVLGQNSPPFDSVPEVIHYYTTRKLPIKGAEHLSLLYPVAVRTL
# UniProt Q9H0K1: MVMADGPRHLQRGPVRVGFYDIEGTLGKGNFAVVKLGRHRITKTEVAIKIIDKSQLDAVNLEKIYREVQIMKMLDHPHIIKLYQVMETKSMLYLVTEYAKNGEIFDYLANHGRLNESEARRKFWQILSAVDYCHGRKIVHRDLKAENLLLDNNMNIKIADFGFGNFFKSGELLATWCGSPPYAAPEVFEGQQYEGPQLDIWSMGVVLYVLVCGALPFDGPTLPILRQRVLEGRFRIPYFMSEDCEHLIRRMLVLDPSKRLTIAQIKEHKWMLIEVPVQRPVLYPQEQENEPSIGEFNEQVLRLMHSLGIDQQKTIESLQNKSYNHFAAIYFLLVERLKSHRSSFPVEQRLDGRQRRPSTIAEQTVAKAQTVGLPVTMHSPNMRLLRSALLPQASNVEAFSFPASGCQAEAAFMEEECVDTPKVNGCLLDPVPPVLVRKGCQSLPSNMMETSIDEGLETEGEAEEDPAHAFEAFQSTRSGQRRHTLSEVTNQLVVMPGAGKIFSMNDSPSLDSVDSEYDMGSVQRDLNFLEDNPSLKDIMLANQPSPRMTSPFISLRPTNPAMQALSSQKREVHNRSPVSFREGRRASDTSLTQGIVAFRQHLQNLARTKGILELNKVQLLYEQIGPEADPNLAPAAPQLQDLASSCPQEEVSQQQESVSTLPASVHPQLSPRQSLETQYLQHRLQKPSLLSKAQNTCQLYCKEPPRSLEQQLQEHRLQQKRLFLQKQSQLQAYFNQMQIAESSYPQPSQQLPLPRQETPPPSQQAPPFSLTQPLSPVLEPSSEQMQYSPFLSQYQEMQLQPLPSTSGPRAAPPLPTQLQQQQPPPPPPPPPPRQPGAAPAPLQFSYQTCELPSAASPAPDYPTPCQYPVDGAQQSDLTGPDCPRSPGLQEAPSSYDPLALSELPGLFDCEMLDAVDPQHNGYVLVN
# UniProt O14796: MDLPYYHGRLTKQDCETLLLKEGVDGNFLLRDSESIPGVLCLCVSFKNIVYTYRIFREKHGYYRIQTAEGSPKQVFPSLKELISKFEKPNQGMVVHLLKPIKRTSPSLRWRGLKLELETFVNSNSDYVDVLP
# UniProt Q9UIU6: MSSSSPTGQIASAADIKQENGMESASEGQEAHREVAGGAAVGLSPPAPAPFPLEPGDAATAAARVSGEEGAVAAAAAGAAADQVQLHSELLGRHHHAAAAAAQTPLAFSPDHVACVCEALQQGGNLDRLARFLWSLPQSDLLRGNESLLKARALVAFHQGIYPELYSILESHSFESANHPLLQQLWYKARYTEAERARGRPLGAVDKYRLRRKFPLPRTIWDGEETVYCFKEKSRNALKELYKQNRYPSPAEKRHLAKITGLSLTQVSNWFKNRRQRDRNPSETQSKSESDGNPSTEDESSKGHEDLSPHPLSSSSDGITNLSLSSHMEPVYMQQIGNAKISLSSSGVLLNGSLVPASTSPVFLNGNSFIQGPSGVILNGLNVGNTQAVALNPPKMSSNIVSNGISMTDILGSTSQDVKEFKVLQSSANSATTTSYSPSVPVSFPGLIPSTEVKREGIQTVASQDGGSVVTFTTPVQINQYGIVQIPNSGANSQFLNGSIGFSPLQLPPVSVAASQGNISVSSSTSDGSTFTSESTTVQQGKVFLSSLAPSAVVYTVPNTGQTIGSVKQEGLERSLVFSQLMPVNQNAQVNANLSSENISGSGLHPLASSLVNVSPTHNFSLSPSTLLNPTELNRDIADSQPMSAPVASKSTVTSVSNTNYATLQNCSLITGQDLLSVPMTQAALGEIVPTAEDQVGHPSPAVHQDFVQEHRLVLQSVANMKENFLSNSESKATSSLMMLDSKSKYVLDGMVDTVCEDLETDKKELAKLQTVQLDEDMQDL
# UniProt P12755: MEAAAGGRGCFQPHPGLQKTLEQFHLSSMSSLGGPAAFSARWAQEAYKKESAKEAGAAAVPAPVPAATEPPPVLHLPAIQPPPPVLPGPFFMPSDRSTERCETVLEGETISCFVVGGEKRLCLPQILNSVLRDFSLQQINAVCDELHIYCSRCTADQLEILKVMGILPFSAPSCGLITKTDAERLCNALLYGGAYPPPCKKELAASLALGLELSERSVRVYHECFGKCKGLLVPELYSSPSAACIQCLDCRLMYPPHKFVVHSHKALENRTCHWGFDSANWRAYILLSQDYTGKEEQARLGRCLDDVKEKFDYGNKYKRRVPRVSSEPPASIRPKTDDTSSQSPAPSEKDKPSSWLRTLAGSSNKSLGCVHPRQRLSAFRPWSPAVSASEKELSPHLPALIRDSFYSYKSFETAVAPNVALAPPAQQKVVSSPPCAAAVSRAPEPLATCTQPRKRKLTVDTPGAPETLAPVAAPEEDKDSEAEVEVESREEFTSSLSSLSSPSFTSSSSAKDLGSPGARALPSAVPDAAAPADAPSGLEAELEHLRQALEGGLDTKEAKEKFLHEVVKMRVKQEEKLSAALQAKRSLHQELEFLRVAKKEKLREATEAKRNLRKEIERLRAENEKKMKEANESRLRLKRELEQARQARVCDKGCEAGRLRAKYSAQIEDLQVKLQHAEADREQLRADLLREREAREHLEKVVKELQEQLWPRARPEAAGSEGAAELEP
# UniProt Q8TD22: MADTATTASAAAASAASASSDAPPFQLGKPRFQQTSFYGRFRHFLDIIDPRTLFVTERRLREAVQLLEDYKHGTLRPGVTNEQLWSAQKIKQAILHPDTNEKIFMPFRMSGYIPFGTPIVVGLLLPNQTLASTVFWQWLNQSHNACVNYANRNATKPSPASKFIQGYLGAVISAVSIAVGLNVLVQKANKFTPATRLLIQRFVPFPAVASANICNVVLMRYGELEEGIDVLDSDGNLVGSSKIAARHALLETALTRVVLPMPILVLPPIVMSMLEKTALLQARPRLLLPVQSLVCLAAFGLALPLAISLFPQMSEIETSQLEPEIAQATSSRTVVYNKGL
# UniProt Q9NP50: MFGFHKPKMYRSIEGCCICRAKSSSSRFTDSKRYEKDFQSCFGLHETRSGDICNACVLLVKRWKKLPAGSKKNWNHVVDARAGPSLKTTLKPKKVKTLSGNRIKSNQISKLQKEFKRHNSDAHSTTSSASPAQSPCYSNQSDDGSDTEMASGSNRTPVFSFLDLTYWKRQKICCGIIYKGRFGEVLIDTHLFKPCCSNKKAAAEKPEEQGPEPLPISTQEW
# UniProt Q9H0F6: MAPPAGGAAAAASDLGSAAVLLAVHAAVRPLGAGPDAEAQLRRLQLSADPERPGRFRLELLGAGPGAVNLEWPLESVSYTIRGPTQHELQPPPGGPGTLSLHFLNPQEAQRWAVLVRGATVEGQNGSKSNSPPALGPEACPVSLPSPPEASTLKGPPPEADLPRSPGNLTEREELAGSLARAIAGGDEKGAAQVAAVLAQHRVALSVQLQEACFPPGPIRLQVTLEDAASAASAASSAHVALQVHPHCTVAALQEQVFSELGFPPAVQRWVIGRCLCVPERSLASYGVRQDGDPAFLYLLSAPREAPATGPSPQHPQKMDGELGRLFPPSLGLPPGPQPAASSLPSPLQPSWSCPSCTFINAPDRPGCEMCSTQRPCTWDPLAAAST
# UniProt Q96B97, whole entry, looked up: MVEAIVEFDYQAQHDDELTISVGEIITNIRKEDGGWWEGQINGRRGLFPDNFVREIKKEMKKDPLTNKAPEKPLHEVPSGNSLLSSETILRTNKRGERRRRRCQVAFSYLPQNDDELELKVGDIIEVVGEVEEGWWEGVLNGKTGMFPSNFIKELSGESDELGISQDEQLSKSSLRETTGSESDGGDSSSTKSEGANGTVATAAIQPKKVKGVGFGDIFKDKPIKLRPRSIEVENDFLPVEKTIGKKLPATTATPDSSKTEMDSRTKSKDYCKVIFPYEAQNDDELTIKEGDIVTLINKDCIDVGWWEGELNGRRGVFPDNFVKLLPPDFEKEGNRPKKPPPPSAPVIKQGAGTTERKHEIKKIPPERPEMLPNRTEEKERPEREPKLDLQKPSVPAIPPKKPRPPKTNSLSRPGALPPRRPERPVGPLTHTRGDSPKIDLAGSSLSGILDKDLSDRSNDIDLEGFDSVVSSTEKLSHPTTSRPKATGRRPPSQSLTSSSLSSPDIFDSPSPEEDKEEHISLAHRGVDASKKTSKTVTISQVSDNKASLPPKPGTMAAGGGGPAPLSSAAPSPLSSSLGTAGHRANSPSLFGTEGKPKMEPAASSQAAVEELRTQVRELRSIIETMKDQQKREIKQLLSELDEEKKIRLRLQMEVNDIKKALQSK
# UniProt Q8WV19: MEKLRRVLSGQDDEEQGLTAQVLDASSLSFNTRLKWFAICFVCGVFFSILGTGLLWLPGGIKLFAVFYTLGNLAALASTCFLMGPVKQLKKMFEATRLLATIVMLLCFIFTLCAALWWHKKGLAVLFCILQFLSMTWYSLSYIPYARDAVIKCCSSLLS
# The other results are listed elsewhere or left out.
# Key:
# Test in all cases: log2 fold change, soluble protein after heating vs DMSO (PISA); higher = thermal stabilisation; K562 lysate, 10 uM; active = over 0.2 and 3.5 SD of the protein, either way, in both replicates (recomputed)
# [1] = compound: Cc1sc2c(c1C)C(c1ccc(Cl)cc1)=N[C@@H](CC(=O)OC(C)(C)C)c1nnc(C)n1-2
# In short: (§1)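 A 30 min treatment with 10 μM compound was applied to crude K562 extract at 1 mg/mL protein in PBS pH 7.4 with 1 mM MgCl2. Heating for 3 min spanned 48°C-58°C, after which aliquots were pooled, adjusted to 0.5% NP-40 at 4°C and spun at 21,000xg for 90 min. TMTpro 16plex LC-MS/MS of the supernatant, with channel sums equalised, gave values recorded as log-two fold change in thermal stability against solvent controls, from duplicates.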
# [2] = compound: CC1=C2C(=CC=C1)N=C(N(C2=O)C3=CC=CC=C3C)CN4C=NC5=C(N=CN=C54)N
# In short: as §1
# [3] = compound: c1ccc([C@@H]2C[C@H]2NC2CCNCC2)cc1
# In short: as §1
# [4] = compound: C1=CC=C(C=C1)[C@H](COC2=CC3=C(C=C2)NC(=O)N3)NC(=O)C4=CC=CN(C4=O)CC5=CC(=C(C=C5)F)F
# In short: as §1
# [5] = compound: CC1=C(SC2=C1C(=N[C@H](C3=NN=C(N32)C)CC(=O)N)C4=CC=C(C=C4)Cl)C
# In short: as §1
target,measurement,setting,value
SHLD1 (UniProt Q8IYI0),log2 fold change,[1],inactive: 0.174
SKOR2 (UniProt Q2VWA4),log2 fold change,[2],inactive: 0.083
same,log2 fold change,[1],inactive: -0.157
same,log2 fold change,[3],inactive: -0.274
SGSH (UniProt P51688),log2 fold change,[3],inactive: -0.041
SHB (UniProt Q15464),log2 fold change,[1],inactive: 0.033
same,log2 fold change,[3],inactive: 0.086
SIK2 (UniProt Q9H0K1),log2 fold change,[3],inactive: -0.029
SH2D1B (UniProt O14796),log2 fold change,[2],inactive: -0.029
same,log2 fold change,[1],inactive: 0.017
same,log2 fold change,[3],inactive: 0.024
SIX4 (UniProt Q9UIU6),log2 fold change,[4],inactive: 0.109
same,log2 fold change,[5],inactive: -0.058
same,log2 fold change,[3],inactive: 0.123
SKI (UniProt P12755),log2 fold change,[3],inactive: -0.075
SFXN5 (UniProt Q8TD22),log2 fold change,[2],inactive: 0.117
same,log2 fold change,[1],inactive: -0.033
SERPINA1 (UniProt P01009),log2 fold change,[1],inactive: -0.045
same,log2 fold change,[3],inactive: -0.084
SINHCAF (UniProt Q9NP50),log2 fold change,[2],inactive: 0.885
same,log2 fold change,[1],inactive: 0.13
same,log2 fold change,[3],inactive: 0.19
SHARPIN (UniProt Q9H0F6),log2 fold change,[2],inactive: 0.078
same,log2 fold change,[1],inactive: -0.093
SH3KBP1 (UniProt Q96B97),log2 fold change,[4],inactive: -0.02
same,log2 fold change,[5],inactive: 0.055
same,log2 fold change,[1],inactive: -0.029
same,log2 fold change,[3],inactive: -0.03
SFT2D1 (UniProt Q8WV19),log2 fold change,[1],inactive: 0.033
SF3B2 (UniProt E9PJ04),log2 fold change,[4],inactive: -0.013
same,log2 fold change,[5],inactive: 0.045
same,log2 fold change,[3],inactive: 0.042
SF1 (UniProt H7C0N4),log2 fold change,[2],inactive: -0.07
same,log2 fold change,[3],inactive: -0.064

# Random excerpt: 2 entries already listed
target,measurement,setting,value
SFXN5 (UniProt Q8TD22),log2 fold change,[2],inactive: 0.117
SIK2 (UniProt Q9H0K1),log2 fold change,[3],inactive: -0.029
